Reference: patent US20240158510A1 (GOVERNING COUNCIL OF THE UNIVERSITY OF TORONTO, published 2024)
No constants are given. Whether binding was seen depends on the method and setting. Some entries that bind do so weakly or less than the wild type.

Sequences of proteins named here, by UniProt entry; tags and fusion partners are left off. A change or cut given only in a name is not applied to a line headed by its entry.
UniProt P06756: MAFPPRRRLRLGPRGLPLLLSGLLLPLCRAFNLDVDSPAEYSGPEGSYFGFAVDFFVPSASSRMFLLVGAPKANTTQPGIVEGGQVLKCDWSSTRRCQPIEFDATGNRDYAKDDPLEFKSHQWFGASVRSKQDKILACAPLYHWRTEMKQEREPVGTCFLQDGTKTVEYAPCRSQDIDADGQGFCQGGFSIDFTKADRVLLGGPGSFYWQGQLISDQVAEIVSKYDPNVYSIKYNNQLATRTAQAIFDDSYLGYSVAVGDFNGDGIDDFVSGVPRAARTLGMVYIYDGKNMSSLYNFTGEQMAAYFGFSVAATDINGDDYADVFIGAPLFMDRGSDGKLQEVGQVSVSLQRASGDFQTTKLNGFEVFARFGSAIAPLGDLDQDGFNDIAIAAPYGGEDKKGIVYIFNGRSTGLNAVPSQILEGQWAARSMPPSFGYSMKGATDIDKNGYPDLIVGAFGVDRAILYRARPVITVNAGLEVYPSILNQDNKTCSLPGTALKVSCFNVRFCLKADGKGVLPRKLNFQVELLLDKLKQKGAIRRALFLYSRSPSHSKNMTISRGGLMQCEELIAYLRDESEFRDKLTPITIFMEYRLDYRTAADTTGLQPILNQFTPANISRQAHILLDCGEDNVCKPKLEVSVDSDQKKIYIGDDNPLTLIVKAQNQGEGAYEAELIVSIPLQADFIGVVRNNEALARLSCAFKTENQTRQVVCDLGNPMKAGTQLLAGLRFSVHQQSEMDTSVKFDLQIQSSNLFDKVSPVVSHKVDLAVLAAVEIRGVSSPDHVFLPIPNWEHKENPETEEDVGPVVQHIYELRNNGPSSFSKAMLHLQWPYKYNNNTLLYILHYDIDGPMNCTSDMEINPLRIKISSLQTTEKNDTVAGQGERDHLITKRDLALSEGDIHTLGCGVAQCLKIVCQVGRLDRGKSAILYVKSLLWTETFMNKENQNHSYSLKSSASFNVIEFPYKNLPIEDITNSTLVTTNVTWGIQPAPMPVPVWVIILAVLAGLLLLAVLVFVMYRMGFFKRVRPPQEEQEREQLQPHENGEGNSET

What was measured:
[1] = target: T1, integrin αvβ6 expressed on CHO cells (UniProt P06756 31-1048; P18564 22-788, limits assumed); test: flow cytometry titration (MFI) on AvB6 CHO cells
[2] = target: Recombinant integrin αv heterodimer (e.g., integrin-αvβ1); test: bio-layer interferometry (Octet), titration series
[3] = target: T2, integrin αvβ8 expressed on CHO cells (UniProt P06756 31-1048; P26012 43-769, limits assumed); test: flow cytometry titration on integrin CHO cells, signal normalised to 100; x axis 0.01-1000 without unit
[4] = target: T3, integrin αvβ3 expressed on CHO cells (UniProt P06756 31-1048; P05106 27-788, limits assumed); test: as above
[5] = target: T1, integrin αvβ6 expressed on CHO cells; test: as above
[6] = target: T4, integrin αvβ5 expressed on CHO cells (UniProt P06756 31-1048; P18084 24-799, limits assumed); test: as above
[7] = target: T5, integrin αvβ1 expressed on CHO cells (UniProt P06756 31-1048; P05556 21-798, limits assumed); test: as above
[8] = target: T2, integrin αvβ8 expressed on CHO cells; test: flow cytometry titration (MFI) on AvB8 CHO cells
[9] = target: T3, integrin αvβ3 expressed on CHO cells; test: flow cytometry titration (MFI) on AvB3 CHO cells
[10] = target: T5, integrin αvβ1 expressed on CHO cells; test: flow cytometry titration (MFI) on AvB1 CHO cells
[11] = target: T4, integrin αvβ5 expressed on CHO cells; test: flow cytometry titration (MFI) on AvB5 CHO cells
[12] = target: T6, recombinant human integrin-αvβ1 (human, UniProt P06756 31-992; P05556 21-728, limits assumed); test: ELISA-type titration (Abs 450 nm) on recombinant integrin-αvβ1; panel titled 'Human', legend paragraph 77 says mouse; target follows the panel title and Table 3
T6 construct: also called Recombinant Human Integrins

[13] = target: T5, integrin αvβ1 expressed on CHO cells; test: flow cytometry on AvB1 CHO cells after freeze-thaw, each group normalised to its own untreated sample; no control IgG in this panel
[14] = target: T5, integrin αvβ1 expressed on CHO cells; test: flow cytometry titration on integrin-αvβ1 CHO cells
[15] = target: T5, integrin αvβ1 expressed on CHO cells; test: flow cytometry, 10404 Fab on integrin-αvβ1 CHO cells
[16] = target: T5, integrin αvβ1 expressed on CHO cells; test: flow cytometry, Fab on integrin-αvβ1 CHO cells

Measured: binding

B1: IgG clone 10392, hG1/hk (pSCSTa-hG1 (10392) heavy chain, pSCSTa-hK (10392) light chain) (antibody, V domains shown)
VH: EVQLVESGGGLVQPGGSLRLSCAASGFNIYYSSIHWVRQAPGKGLEWVASISSSSGSTSTYADSVKGRFTISADTSKNTAYLQMNSLRAEDTAVYYCARSYYGGGYPYALDYWGQGTLVTVSS
VL: DIQMTQSPSSLSASVGDRVTITCRASQSVSSAVAWYQQKPGKAPKLLIYSASSLYSGVPSRFSGSRSGTDFTLTISSLQPEDFATYYCQQYFGGLITFGQGTKVEIKR
notes: Full-length human IgG1/kappa made in Expi293 cells
not listed: [13] | [14] | [15] | [16]
binds: all other assays above

B2: IgG clone 10404, hG1/hk (pSCSTa-hG1 (10404) heavy chain, pSCSTa-hK (10404) light chain) (antibody, V domains shown)
VH: EVQLVESGGGLVQPGGSLRLSCAASGFNLYSSSIHWVRQAPGKGLEWVAYIYPSYGYTSTYADSVKGRFTISADTSKNTAYLQMNSLRAEDTAVYYCARPAPYYSWYPAMDYWGQGTLVTVSS
VL: DIQMTQSPSSLSASVGDRVTITCRASQSVSSAVAWYQQKPGKAPKLLIYSASSLYSGVPSRFSGSRSGTDFTLTISSLQPEDFATYYCQQASGSPFTFGQGTKVEIKR
notes: as for B1
binds: [2] | [3] | [4] | [5] | [6] | [7] | [12]

B3: 10404 hG4/hk (antibody, V domains shown)
VH: EVQLVESGGGLVQPGGSLRLSCAASGFNLYSSSIHWVRQAPGKGLEWVAYIYPSYGYTSTYADSVKGRFTISADTSKNTAYLQMNSLRAEDTAVYYCARPAPYYSWYPAMDYWGQGTLVTVSS
VL: DIQMTQSPSSLSASVGDRVTITCRASQSVSSAVAWYQQKPGKAPKLLIYSASSLYSGVPSRFSGSRSGTDFTLTISSLQPEDFATYYCQQASGSPFTFGQGTKVEIKR
notes: the IgG4 constant region used is not specified; not shown: human IgG4 constant region ('hG4')
binds: [12]

B4: 10404 hG1 LALA PG/hk (antibody, V domains shown)
VH: EVQLVESGGGLVQPGGSLRLSCAASGFNLYSSSIHWVRQAPGKGLEWVAYIYPSYGYTSTYADSVKGRFTISADTSKNTAYLQMNSLRAEDTAVYYCARPAPYYSWYPAMDYWGQGTLVTVSS
VL: DIQMTQSPSSLSASVGDRVTITCRASQSVSSAVAWYQQKPGKAPKLLIYSASSLYSGVPSRFSGSRSGTDFTLTISSLQPEDFATYYCQQASGSPFTFGQGTKVEIKR
notes: not shown: human IgG1 constant region with 'LALA PG' changes
binds: [12]

B5: IgG 11867 (antibody, V domains shown)
VH: EVQLVESGGGLVQPGGSLRLSCAASGFDFDSYAIHWVRQAPGKGLEWVAYFYPGHDYSTYADSVKGRFTISADTSKNTAYLQMNSLRAEDTAVYYCARPSPYFSWHQAMDYWGQGTLVTVSS
VL: DIQMTQSPSSLSASVGDRVTITCRASQSVSSAVAWYQQKPGKAPKLLIYSASSLYSGVPSRFSGSRSGTDFTLTISSLQPEDFATYYCQQATGSEVTFGQGTKVEIKR
notes: also called 11867 hG1
binds: [13] | [1] | [14] | [8] | [9] | [10] | [11]

B6: 11867 hG4 (antibody, human IgG4, V domains shown)
VH: EVQLVESGGGLVQPGGSLRLSCAASGFDFDSYAIHWVRQAPGKGLEWVAYFYPGHDYSTYADSVKGRFTISADTSKNTAYLQMNSLRAEDTAVYYCARPSPYFSWHQAMDYWGQGTLVTVSS
VL: DIQMTQSPSSLSASVGDRVTITCRASQSVSSAVAWYQQKPGKAPKLLIYSASSLYSGVPSRFSGSRSGTDFTLTISSLQPEDFATYYCQQATGSEVTFGQGTKVEIK
binds: [13]

B7: Fab 10404 (Fab, V domains shown)
VH: EVQLVESGGGLVQPGGSLRLSCAASGFNLYSSSIHWVRQAPGKGLEWVAYIYPSYGYTSTYADSVKGRFTISADTSKNTAYLQMNSLRAEDTAVYYCARPAPYYSWYPAMDYWGQGTLVTVSS
VL: DIQMTQSPSSLSASVGDRVTITCRASQSVSSAVAWYQQKPGKAPKLLIYSASSLYSGVPSRFSGSRSGTDFTLTISSLQPEDFATYYCQQASGSPFTFGQGTKVEIK
binds: [15] | [16]

B8: 11867 mG1 (antibody, mouse IgG1, V domains shown)
VH: EVQLVESGGGLVQPGGSLRLSCAASGFDFDSYAIHWVRQAPGKGLEWVAYFYPGHDYSTYADSVKGRFTISADTSKNTAYLQMNSLRAEDTAVYYCARPSPYFSWHQAMDYWGQGTLVTVSS
VL: DIQMTQSPSSLSASVGDRVTITCRASQSVSSAVAWYQQKPGKAPKLLIYSASSLYSGVPSRFSGSRSGTDFTLTISSLQPEDFATYYCQQATGSEVTFGQGTKVEIK
binds: [13]

B9: 11867 m2a (antibody, mouse IgG2a, V domains shown)
VH: EVQLVESGGGLVQPGGSLRLSCAASGFDFDSYAIHWVRQAPGKGLEWVAYFYPGHDYSTYADSVKGRFTISADTSKNTAYLQMNSLRAEDTAVYYCARPSPYFSWHQAMDYWGQGTLVTVSS
VL: DIQMTQSPSSLSASVGDRVTITCRASQSVSSAVAWYQQKPGKAPKLLIYSASSLYSGVPSRFSGSRSGTDFTLTISSLQPEDFATYYCQQATGSEVTFGQGTKVEIK
binds: [13]

B10: 11867 m2a LLPG (antibody, mouse IgG2a, V domains shown)
VH: EVQLVESGGGLVQPGGSLRLSCAASGFDFDSYAIHWVRQAPGKGLEWVAYFYPGHDYSTYADSVKGRFTISADTSKNTAYLQMNSLRAEDTAVYYCARPSPYFSWHQAMDYWGQGTLVTVSS
VL: DIQMTQSPSSLSASVGDRVTITCRASQSVSSAVAWYQQKPGKAPKLLIYSASSLYSGVPSRFSGSRSGTDFTLTISSLQPEDFATYYCQQATGSEVTFGQGTKVEIK
binds: [13]
